In patent US11911397B2, “Anordrin compositions and methods for treating diseases” (Zhejiang Jiachi Development Pharmaceuticals LTD, priority 2014, dated 2024):
At least one read-out could not be matched to a standard name with certainty.

Tested on: MCF-7 cells
Test: MCF-7 cell growth, cell counting
Type: cell-based
Details: cell number after 144 h; cells induced in IL-free medium for two months

## C#C[C@@]1(OC(=O)CC)C[C@@H]2CC[C@@H]3[C@H](CC[C@@]4(C)[C@H]3CC[C@]4(C#C)OC(=O)CC)[C@@]2(C)C1 [anordrin, 2α,17α-diethynyl-A-nor-5α-androstane-2β,17β-diol dipropionate]
  effect of insulin (IL) in medium on drug sensitivity (IC50) of MCF-7 cell growth: decreasing the sensitivity
